Taken from: PubChem BioAssay AID504774 (Drosophila RNAi Screening Center, 2011)
Aim: 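Genes required for cells to withstand methyl methanesulphonate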 (primary screen). Cells: Drosophila Kc167 cells. Reagents: long dsRNA against Drosophila genes, about 0.25 µg dsRNA per well. Timing: about 6 days: 3 days knock-down, then 3 days with or without MMS. Treatment: methyl methanesulphonate 0.004% (w/v) for 3 days after knock-down. Measured: 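ATP-dependent luminescence as a measure of live cells in MMS-exposed wells, quantile normalised within each plate, with replicate values also given as a mean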. Direction: mean viability with MMS: higher = more surviving cells after MMS.
The deposit covers about 23,000 reagents; below is a random part of those that have a named target and a result. 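Values are quantile-normalised luminescence on an arbitrary scale; higher means more cells surviving MMS.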 The numbers tell different reagents against one gene apart. Further read-outs or replicates are left out here.

Silencing of CG34221 resulted in: mean viability with MMS 3.51e6. With knock-down of AANATL4 the results were mean viability with MMS 3.54e6. With knock-down of CG5080, the screen gave mean viability with MMS 3.53e6. Knock-down of CG8516 came out at: mean viability with MMS 3.48e6. For amd #1, the values are mean viability with MMS 3.64e6. Against amd #2, the values are mean viability with MMS 3.53e6.

Against Bet3, the values are mean viability with MMS 3.71e6. After knock-down of E(spl)mgamma-HLH, the screen gave mean viability with MMS 3.41e6. For inaC, the entry reads mean viability with MMS 3.50e6. sgl showed mean viability with MMS 3.62e6. Against Ccp84Af, the values are mean viability with MMS 3.55e6. Depletion of ck gave: mean viability with MMS 3.50e6.

With knock-down of CG10205 the results were mean viability with MMS 3.35e6. Silencing of GstE9 came out at: mean viability with MMS 3.53e6. With knock-down of CG3419 (retired record) #1, the screen gave mean viability with MMS 3.58e6. With knock-down of CG3419 (retired record) #2, the record shows mean viability with MMS 3.62e6.

A few values from the entries so far:
GstE9, mean viability with MMS → 3.53e6
CG34221, mean viability with MMS: 3.51e6
For “mean viability with MMS”, amd #2 is entered as 3.53e6

Continued:
Silencing of Pex12 came out at: mean viability with MMS 3.37e6. For Rim2 #1 the deposit lists mean viability with MMS 3.57e6. For Rim2 #2, the entry reads mean viability with MMS 3.58e6. After knock-down of Rim2 #3 the results were mean viability with MMS 3.56e6. Against Pdfr, the entry reads mean viability with MMS 3.40e6. After knock-down of Nup58 the results were mean viability with MMS 3.26e6.

Against CG14662, the values are mean viability with MMS 3.28e6. IntS10 scored mean viability with MMS 3.50e6. For tau #1, the values are mean viability with MMS 3.46e6. With knock-down of tau #2 the results were mean viability with MMS 3.56e6. After knock-down of Cdc45 #1 the results were mean viability with MMS 2.99e6. After knock-down of Cdc45 #2, the screen gave mean viability with MMS 3.48e6.

CG14712 scored mean viability with MMS 3.35e6. With knock-down of eIF2Bdelta, the screen gave mean viability with MMS 3.57e6. After knock-down of Dredd the results were mean viability with MMS 3.49e6. For se, the values are mean viability with MMS 3.65e6. With knock-down of hrm, the record shows mean viability with MMS 3.71e6. d-cup scored mean viability with MMS 3.35e6.

vtd gave mean viability with MMS 3.54e6.
